Small differences around the control level are noise.
Experiments:
Experiment in all cases: normalised response (% of control), CellTox Green; higher = less cell death (100 = DMSO, 0 = benzethonium chloride kill control)
Details in all cases: incubation time: 72 h
[1] = system: MDA-MB-468
Experimental: (§1)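 DSRT, 72 h incubation, CellTox Green / CellTiter-Glo readout. Signal is normalised to DMSO and benzethonium chloride controls. Value is the normalised response at the lowest tested concentration.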

[2] = system: CAL-120
Experimental: as §1

[3] = system: HDQ-P1
Experimental: as §1

[4] = system: HCC1599
Experimental: as §1

[5] = system: BT-549
Experimental: as §1

[6] = system: HCC1937
Experimental: as §1

[7] = system: MDA-MB-436
Experimental: as §1

[8] = system: MDA-MB-231
Experimental: as §1

[9] = system: MCF-10A
Experimental: as §1

[10] = system: CAL-148
Experimental: as §1

[11] = system: CAL-51
Experimental: as §1

[12] = system: BT-474
Experimental: as §1

[13] = system: MDA-MB-453
Experimental: as §1

[14] = system: DU-4475
Experimental: as §1

[15] = system: MFM-223
Experimental: as §1

[16] = system: HCC1143
Experimental: as §1

[17] = system: CAL-85-1
Experimental: as §1

[18] = system: Hs578T
Experimental: as §1

| Compound | normalised response [1] | normalised response [2] | normalised response [3] | normalised response [4] | normalised response [5] | normalised response [6] | normalised response [7] | normalised response [8] | normalised response [9] | normalised response [10] | normalised response [11] | normalised response [12] | normalised response [13] | normalised response [14] | normalised response [15] | normalised response [16] | normalised response [17] | normalised response [18] |
| --- | --- | --- | --- | --- | --- | --- | --- | --- | --- | --- | --- | --- | --- | --- | --- | --- | --- | --- |
| CCCCCCCCCCCCCCCCCCOP(=O)([O-])OC1CC[N+](C)(C)CC1 [Perifosine] (0.25 nM) | 106% | 99.6% | 105% | 95% | 102% | 92.7% | 66.2% | 112% | 109% | 99% | 95.8% | 94.6% | 94.3% | 108% | 102% | 77.3% | 98.5% |  |
| COc1cc([C@@H]2c3cc4c(cc3[C@@H](O[C@@H]3O[C@@H]5CO[C@@H](C)O[C@H]5[C@H](O)[C@H]3O)[C@H]3COC(=O)[C@H]23)OCO4)cc(OC)c1O [Etoposide] (1 nM) |  | 102% | 107% | 113% | 98.7% | 73.8% | 92.7% | 112% | 108% | 97.8% | 120% | 101% | 69.6% | 105% | 84.7% | 120% | 96% | 98.7% |
| Cn1cc(C[C@@H](N)C(=O)O)c2ccccc21 [1-methyl-D-tryptophan] (0.5 nM) | 64.7% | 93.5% | 88.6% | 94.5% | 86.7% |  | 79.8% | 91.9% | 101% | 102% | 114% | 94.9% | 102% | 98.3% | 80.2% | 102% | 96.7% |  |
| CCN(CC)CCCC(C)Nc1c2ccc(Cl)cc2nc2ccc(OC)cc12 (configuration not stated) [Mepacrine] (5 nM) | 75.9% | 102% | 102% | 110% | 90.3% |  | 74% |  | 113% | 91% | 99.9% | 99.3% | 100% | 105% | 85% | 121% | 97.2% | 92.1% |
| CC1=C2C[C@H]3[C@@H](CC=C4C[C@@H](O)CC[C@@]43C)[C@@H]2CC[C@]12O[C@@H]1C[C@H](C)CN[C@H]1[C@H]2C [Cyclopamine] (1 nM) | 56.4% | 97.2% | 101% | 100% | 93.5% | 109% | 96.4% |  |  | 101% | 114% | 101% | 101% | 103% | 76.9% | 117% | 106% | 88.9% |
| CN(C)CCOc1ccc(/C(=C(/CCCl)c2ccccc2)c2ccccc2)cc1 [Toremifene] (1 nM) | 98.4% | 103% | 88.2% | 97.8% | 96.6% | 85.1% | 96.1% | 106% |  | 75.8% | 109% | 93.6% | 106% | 103% | 101% | 117% | 98.4% | 110% |
| C=CCn1c(=O)c2cnc(Nc3ccc(N4CCN(C)CC4)cc3)nc2n1-c1cccc(C(C)(C)O)n1 [MK1775] (1 nM) | 112% | 96.7% | 91.8% | 89.2% | 104% |  | 67.3% | 89.3% | 72% | 65.3% | 107% | 74.3% | 98.7% | 87.6% | 96.2% | 78% | 94.4% |  |
| CN1CCN(c2ccc3nc(-c4c(N)c5c(F)cccc5[nH]c4=O)[nH]c3c2)CC1 [Dovitinib] (1 nM) | 83.3% | 102% | 94.5% | 99.5% | 102% | 91.5% |  | 100% | 104% | 102% | 121% | 102% | 103% | 98.3% | 95.6% | 118% | 103% | 107% |
| Oc1ccc2c(c1)CC[C@H](c1ccccc1)[C@@H]2c1ccc(OCCN2CCCC2)cc1 [Lasofoxifene] (0.1 nM) |  | 99.9% | 102% | 94.6% | 68.8% | 109% | 54.5% | 103% |  | 85.8% | 129% | 104% | 112% | 105% | 95.3% | 115% | 105% | 109% |
| Nc1nc(OCc2cc(Br)cs2)c2[nH]cnc2n1 [Lomeguatrib] (1 nM) |  | 103% | 101% | 107% | 102% | 113% | 86.9% | 113% | 104% | 99.5% | 117% | 99.4% | 106% | 104% | 103% | 86.8% | 101% | 105% |
| OC[C@H]1O[C@@H](n2cnc3c2N=CNC[C@H]3O)C[C@@H]1O [Pentostatin] (1 nM) | 73.3% | 101% | 88.8% | 101% | 93.1% | 106% | 98% | 63.3% | 108% | 102% | 118% | 96.9% | 98.6% | 104% | 98.7% |  | 99.9% | 103% |

Source: the supplement of paper PMC4862054
